Test results from the supplement of paper PMC10032668.
The list shows a part of the results. Only hits are listed; about a third recur on repeated control peptides.

The chains behind the UniProt entries cited, without tags or fusion partners.
ATP6V1A, P38606, UniProt P38606, whole entry: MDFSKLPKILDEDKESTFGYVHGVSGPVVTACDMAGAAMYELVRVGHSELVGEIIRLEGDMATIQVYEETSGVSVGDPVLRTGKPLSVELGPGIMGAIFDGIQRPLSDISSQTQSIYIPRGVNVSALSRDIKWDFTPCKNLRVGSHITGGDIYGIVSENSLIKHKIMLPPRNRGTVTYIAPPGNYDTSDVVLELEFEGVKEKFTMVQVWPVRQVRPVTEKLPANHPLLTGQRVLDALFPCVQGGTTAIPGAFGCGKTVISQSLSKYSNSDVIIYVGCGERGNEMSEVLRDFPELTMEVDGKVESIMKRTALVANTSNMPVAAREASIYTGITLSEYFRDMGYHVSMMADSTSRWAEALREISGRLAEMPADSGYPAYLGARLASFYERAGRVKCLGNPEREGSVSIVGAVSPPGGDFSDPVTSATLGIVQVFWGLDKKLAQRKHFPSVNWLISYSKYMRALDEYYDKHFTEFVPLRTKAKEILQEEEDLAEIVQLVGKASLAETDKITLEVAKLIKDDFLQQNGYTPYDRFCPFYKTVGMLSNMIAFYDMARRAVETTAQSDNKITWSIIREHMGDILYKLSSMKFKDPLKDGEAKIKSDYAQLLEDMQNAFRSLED
GTF2F2, P13984, UniProt P13984, whole entry: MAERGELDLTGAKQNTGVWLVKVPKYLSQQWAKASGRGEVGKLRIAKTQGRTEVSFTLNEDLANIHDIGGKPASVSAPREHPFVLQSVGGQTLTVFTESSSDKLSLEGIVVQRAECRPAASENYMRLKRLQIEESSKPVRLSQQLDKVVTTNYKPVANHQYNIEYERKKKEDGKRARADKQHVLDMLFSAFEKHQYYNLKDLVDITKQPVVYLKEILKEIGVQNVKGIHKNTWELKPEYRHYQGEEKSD
INTS7, Q9NVH2, UniProt Q9NVH2, whole entry: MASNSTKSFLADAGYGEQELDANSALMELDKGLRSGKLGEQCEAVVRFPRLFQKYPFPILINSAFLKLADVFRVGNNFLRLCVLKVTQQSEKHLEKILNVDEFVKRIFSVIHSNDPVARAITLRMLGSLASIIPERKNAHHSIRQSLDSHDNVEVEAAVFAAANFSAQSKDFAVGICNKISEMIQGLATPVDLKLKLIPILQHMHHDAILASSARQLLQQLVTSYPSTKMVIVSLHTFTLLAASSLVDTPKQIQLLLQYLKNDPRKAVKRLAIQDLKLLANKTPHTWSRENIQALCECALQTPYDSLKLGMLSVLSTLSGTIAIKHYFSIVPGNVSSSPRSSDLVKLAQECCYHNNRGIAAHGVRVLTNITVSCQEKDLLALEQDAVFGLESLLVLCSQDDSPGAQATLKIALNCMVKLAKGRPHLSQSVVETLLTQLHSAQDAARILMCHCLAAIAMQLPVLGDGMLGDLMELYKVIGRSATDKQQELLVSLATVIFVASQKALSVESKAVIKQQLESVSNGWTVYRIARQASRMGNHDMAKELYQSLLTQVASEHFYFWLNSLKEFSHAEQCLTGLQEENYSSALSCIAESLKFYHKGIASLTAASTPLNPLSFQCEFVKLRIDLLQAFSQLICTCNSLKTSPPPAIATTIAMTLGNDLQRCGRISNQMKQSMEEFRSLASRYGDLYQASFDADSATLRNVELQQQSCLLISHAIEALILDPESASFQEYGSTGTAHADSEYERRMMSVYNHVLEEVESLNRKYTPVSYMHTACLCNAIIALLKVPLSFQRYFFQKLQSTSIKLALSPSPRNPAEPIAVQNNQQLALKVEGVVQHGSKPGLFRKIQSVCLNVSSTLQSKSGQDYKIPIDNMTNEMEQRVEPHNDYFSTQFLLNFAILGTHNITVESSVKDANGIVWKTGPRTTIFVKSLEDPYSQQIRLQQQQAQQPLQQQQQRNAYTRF
MEN1, O00255, UniProt O00255, whole entry: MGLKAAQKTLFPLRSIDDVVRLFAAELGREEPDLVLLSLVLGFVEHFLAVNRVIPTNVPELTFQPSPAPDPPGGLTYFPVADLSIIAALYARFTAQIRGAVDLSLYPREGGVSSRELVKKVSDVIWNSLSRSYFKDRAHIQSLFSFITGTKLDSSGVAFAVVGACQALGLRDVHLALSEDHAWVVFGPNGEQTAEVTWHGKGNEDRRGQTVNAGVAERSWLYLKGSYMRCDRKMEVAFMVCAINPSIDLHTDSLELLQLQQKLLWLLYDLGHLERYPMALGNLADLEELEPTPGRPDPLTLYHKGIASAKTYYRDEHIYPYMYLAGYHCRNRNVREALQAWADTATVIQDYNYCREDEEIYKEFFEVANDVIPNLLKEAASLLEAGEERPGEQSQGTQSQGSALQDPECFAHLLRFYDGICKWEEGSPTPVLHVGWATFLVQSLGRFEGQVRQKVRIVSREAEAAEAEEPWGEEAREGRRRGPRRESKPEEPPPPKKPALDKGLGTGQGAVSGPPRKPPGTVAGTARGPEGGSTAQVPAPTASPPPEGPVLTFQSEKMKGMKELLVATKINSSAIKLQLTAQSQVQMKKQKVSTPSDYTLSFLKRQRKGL
EIF2B1, Q14232, UniProt Q14232, whole entry: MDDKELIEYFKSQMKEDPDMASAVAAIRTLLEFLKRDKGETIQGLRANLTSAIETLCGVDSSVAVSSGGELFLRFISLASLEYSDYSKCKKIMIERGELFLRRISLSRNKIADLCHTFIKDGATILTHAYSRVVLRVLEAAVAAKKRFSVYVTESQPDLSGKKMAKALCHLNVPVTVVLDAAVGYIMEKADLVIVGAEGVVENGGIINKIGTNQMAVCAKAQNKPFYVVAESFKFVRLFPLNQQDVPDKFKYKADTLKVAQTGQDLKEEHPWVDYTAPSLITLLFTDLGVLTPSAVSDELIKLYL
KPNA1, P52294, UniProt P52294, whole entry: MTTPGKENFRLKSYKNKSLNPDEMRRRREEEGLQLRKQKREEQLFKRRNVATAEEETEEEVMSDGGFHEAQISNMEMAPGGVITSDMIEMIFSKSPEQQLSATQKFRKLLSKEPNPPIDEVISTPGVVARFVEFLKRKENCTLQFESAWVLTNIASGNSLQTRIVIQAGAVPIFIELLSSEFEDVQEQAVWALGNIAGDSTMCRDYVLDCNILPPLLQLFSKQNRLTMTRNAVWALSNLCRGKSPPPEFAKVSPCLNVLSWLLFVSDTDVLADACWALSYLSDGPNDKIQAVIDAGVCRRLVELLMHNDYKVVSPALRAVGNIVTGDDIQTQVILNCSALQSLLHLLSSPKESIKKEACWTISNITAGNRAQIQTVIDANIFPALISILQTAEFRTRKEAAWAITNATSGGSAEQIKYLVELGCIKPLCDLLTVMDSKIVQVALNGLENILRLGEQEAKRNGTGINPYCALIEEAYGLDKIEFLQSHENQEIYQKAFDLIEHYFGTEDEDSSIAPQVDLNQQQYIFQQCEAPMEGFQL
TPM4, P67936, UniProt P67936, whole entry: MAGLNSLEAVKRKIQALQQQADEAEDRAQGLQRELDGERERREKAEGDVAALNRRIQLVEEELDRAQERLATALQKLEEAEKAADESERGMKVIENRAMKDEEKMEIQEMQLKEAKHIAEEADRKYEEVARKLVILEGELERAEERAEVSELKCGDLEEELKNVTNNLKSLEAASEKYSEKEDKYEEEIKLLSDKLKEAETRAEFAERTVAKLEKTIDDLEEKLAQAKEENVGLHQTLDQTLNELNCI
TUBB6, Q9BUF5, UniProt Q9BUF5, whole entry: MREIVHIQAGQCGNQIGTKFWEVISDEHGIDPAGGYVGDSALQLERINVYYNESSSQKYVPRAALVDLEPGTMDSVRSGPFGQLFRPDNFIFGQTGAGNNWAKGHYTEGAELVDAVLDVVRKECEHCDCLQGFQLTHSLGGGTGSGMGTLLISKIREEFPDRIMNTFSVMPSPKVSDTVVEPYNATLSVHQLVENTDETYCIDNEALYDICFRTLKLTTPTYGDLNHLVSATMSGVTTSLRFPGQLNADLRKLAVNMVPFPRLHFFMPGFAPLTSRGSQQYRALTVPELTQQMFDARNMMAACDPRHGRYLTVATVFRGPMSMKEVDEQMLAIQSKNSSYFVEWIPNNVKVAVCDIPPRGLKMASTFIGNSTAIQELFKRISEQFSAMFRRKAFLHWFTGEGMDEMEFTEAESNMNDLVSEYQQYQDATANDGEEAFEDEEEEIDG
UNG, P13051, UniProt P13051, whole entry: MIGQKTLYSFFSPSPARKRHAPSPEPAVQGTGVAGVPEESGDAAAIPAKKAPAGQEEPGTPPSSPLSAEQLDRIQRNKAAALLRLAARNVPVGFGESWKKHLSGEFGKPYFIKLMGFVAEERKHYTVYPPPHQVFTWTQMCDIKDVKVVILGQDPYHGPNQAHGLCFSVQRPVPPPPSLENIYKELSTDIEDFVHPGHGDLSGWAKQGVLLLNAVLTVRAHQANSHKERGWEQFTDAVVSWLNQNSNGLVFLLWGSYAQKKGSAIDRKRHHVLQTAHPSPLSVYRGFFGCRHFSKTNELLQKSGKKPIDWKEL

What was measured:
Test in all cases: PRISMA enrichment of interactor (LFQ) in peptide spot vs all other peptide spots (log2 fold change); higher = stronger / more specific binding of the interactor to the peptide
APOB, P04114 = target: APOB, P04114
Method: (§1)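 PRISMA: 15-aa overlapping tiles (offset 8 aa) of 60 microproteins, plus SOS1/GLUT1 control peptides, were spot-synthesized on cellulose membranes in triplicate. Membranes were incubated with benzonase-treated HEK293T lysate, and bound proteins were identified by LC-MS/MS with LFQ. Enrichment is the log2 fold change of each protein in one spot versus all other spots. Only interactors passing the significance cutoff are listed.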

ATP6V1A, P38606 = target: ATP6V1A, P38606
Method: as §1

CTBP2, P56545 = target: CTBP2, P56545
Method: as §1

FAR1, Q8WVX9 = target: FAR1, Q8WVX9
Method: as §1

GIGYF2, Q6Y7W6 = target: GIGYF2, Q6Y7W6
Method: as §1

GTF2F2, P13984 = target: GTF2F2, P13984
Method: as §1

HLA-B = target: HLA-B
Method: as §1

INTS7, Q9NVH2 = target: INTS7, Q9NVH2
Method: as §1

MEN1, O00255 = target: MEN1, O00255
Method: as §1

MRFAP1, Q9Y605 = target: MRFAP1, Q9Y605
Method: as §1

MRPL11, Q9Y3B7 = target: MRPL11, Q9Y3B7
Method: as §1

OGFR, Q9NZT2 = target: OGFR, Q9NZT2
Method: as §1

RO60, P10155 = target: RO60, P10155
Method: as §1

TMEM256-PLSCR3 = target: TMEM256-PLSCR3
Method: as §1

UBE2M, P61081 = target: UBE2M, P61081
Method: as §1

USP15, Q9Y4E8 = target: USP15, Q9Y4E8
Method: as §1

ZNF503, Q96F45 = target: ZNF503, Q96F45
Method: as §1

ZNF622, Q969S3 = target: ZNF622, Q969S3
Method: as §1

APRT, P07741 = target: APRT, P07741
Method: as §1

ARF1, P84077 = target: ARF1, P84077
Method: as §1

CDC42EP1, Q00587 = target: CDC42EP1, Q00587
Method: as §1

CDCA7L, Q96GN5 = target: CDCA7L, Q96GN5
Method: as §1

CMAS, Q8NFW8 = target: CMAS, Q8NFW8
Method: as §1

[1] = substrate: CNP, P09543
Method: as §1

COPS4, Q9BT78 = target: COPS4, Q9BT78
Method: as §1

DDX18, Q9NVP1 = target: DDX18, Q9NVP1
Method: as §1

EHD1, Q9H4M9 = target: EHD1, Q9H4M9
Method: as §1

EHD4, Q9H223 = target: EHD4, Q9H223
Method: as §1

EIF2B1, Q14232 = target: EIF2B1, Q14232
Method: as §1

ELOA, Q14241 = target: ELOA, Q14241
Method: as §1

FUBP3, Q96I24 = target: FUBP3, Q96I24
Method: as §1

GTF3C3, Q9Y5Q9 = target: GTF3C3, Q9Y5Q9
Method: as §1

HNRNPR, O43390 = target: HNRNPR, O43390
Method: as §1

KPNA1, P52294 = target: KPNA1, P52294
Method: as §1

MRPL22, Q9NWU5 = target: MRPL22, Q9NWU5
Method: as §1

PPP1R2, P41236 = target: PPP1R2, P41236
Method: as §1

PSMA4, P25789 = target: PSMA4, P25789
Method: as §1

RNH1, P13489 = target: RNH1, P13489
Method: as §1

RPN2, P04844 = target: RPN2, P04844
Method: as §1

SHROOM3, Q8TF72 = target: SHROOM3, Q8TF72
Method: as §1

TOMM6, Q96B49 = target: TOMM6, Q96B49
Method: as §1

TPM4, P67936 = target: TPM4, P67936
Method: as §1

TRA2A, Q13595 = target: TRA2A, Q13595
Method: as §1

TUBB6, Q9BUF5 = target: TUBB6, Q9BUF5
Method: as §1

UNG, P13051 = target: UNG, P13051
Method: as §1

For PGKHAASKAAFLREI [EBAG9], the “PRISMA enrichment of interactor (log2)” value (APOB, P04114) was 4.18, the “PRISMA enrichment of interactor (log2)” value (ATP6V1A, P38606) was 5.41 and the “PRISMA enrichment of interactor (log2)” value (CTBP2, P56545) was 5.01. For the same binder, the “PRISMA enrichment of interactor (log2)” value (FAR1, Q8WVX9) was 4.42, the “PRISMA enrichment of interactor (log2)” value (GIGYF2, Q6Y7W6) was 5.41 and the “PRISMA enrichment of interactor (log2)” value (GTF2F2, P13984) was 5.29. The “PRISMA enrichment of interactor (log2)” value (HLA-B) was 5.47, the “PRISMA enrichment of interactor (log2)” value (INTS7, Q9NVH2) was 5.45 and the “PRISMA enrichment of interactor (log2)” value (MEN1, O00255) was 4.51. The “PRISMA enrichment of interactor (log2)” value (MRFAP1, Q9Y605) was 5.82, the “PRISMA enrichment of interactor (log2)” value (MRPL11, Q9Y3B7) was 4.41 and the “PRISMA enrichment of interactor (log2)” value (OGFR, Q9NZT2) was 3.87. The “PRISMA enrichment of interactor (log2)” value (RO60, P10155) was 5.64, the “PRISMA enrichment of interactor (log2)” value (TMEM256-PLSCR3) was 5.57 and the “PRISMA enrichment of interactor (log2)” value (UBE2M, P61081) was 6.77. The “PRISMA enrichment of interactor (log2)” value (USP15, Q9Y4E8) was 4.13, the “PRISMA enrichment of interactor (log2)” value (ZNF503, Q96F45) was 4.62 and the “PRISMA enrichment of interactor (log2)” value (ZNF622, Q969S3) was 7.5.

With DMLPNGAVGSLTQLG [LINC01560] the “PRISMA enrichment of interactor (log2)” value (APRT, P07741) was 4.54, the “PRISMA enrichment of interactor (log2)” value (ARF1, P84077) was 5.88 and the “PRISMA enrichment of interactor (log2)” value (CDC42EP1, Q00587) was 3.88. For the same binder, the “PRISMA enrichment of interactor (log2)” value (CDCA7L, Q96GN5) was 5.71, the “PRISMA enrichment of interactor (log2)” value (CMAS, Q8NFW8) was 6.37 and the “PRISMA enrichment of interactor (log2)” value [1] was 5.8. For the same binder, the “PRISMA enrichment of interactor (log2)” value (COPS4, Q9BT78) was 5.65, the “PRISMA enrichment of interactor (log2)” value (DDX18, Q9NVP1) was 5.01 and the “PRISMA enrichment of interactor (log2)” value (EHD1, Q9H4M9) was 4.88. For the same binder, the “PRISMA enrichment of interactor (log2)” value (EHD4, Q9H223) was 5.53, the “PRISMA enrichment of interactor (log2)” value (EIF2B1, Q14232) was 4.46 and the “PRISMA enrichment of interactor (log2)” value (ELOA, Q14241) was 5.21. For the same binder, the “PRISMA enrichment of interactor (log2)” value (FUBP3, Q96I24) was 5.96, the “PRISMA enrichment of interactor (log2)” value (GTF3C3, Q9Y5Q9) was 8.82 and the “PRISMA enrichment of interactor (log2)” value (HNRNPR, O43390) was 8.22. For the same binder, the “PRISMA enrichment of interactor (log2)” value (KPNA1, P52294) was 6.38, the “PRISMA enrichment of interactor (log2)” value (MRPL22, Q9NWU5) was 6.38 and the “PRISMA enrichment of interactor (log2)” value (PPP1R2, P41236) was 6.48. The “PRISMA enrichment of interactor (log2)” value (PSMA4, P25789) was 6.36, the “PRISMA enrichment of interactor (log2)” value (RNH1, P13489) was 11.6 and the “PRISMA enrichment of interactor (log2)” value (RPN2, P04844) was 5.25. For the same binder, the “PRISMA enrichment of interactor (log2)” value (SHROOM3, Q8TF72) was 10.7, the “PRISMA enrichment of interactor (log2)” value (TOMM6, Q96B49) was 5.7 and the “PRISMA enrichment of interactor (log2)” value (TPM4, P67936) was 5.16. For the same binder, the “PRISMA enrichment of interactor (log2)” value (TRA2A, Q13595) was 4.6, the “PRISMA enrichment of interactor (log2)” value (TUBB6, Q9BUF5) was 6.9 and the “PRISMA enrichment of interactor (log2)” value (UBE2M, P61081) was 6.37. The “PRISMA enrichment of interactor (log2)” value (UNG, P13051) was 7.26.
